{
  "source": "patent US20190022198A1",
  "about": "“Individualized Immunomodulation Therapy for Neurodegenerative Disorders, CNS Injury and Age-Related Dementia” (Yeda Research and Development Co. Ltd., priority 2012, published 2019)",
  "system": "mSOD1 mice",
  "test": "MOG immunization of mSOD1 mice: EAE symptoms, CP trafficking molecules, leukocytes in CSF and spinal cord, survival",
  "format": "in vivo, mouse",
  "conditions": "mSOD1 mice immunized at the age of 60 days",
  "data": [
    {"substance": "MOG35-55 (MEVGWYRSPFSRVVHLYRNGK; emulsified in adjuvant) [emulsified in incomplete Freund's adjuvant containing 0.5 mg/ml M. tuberculosis]", "values": [
      {"measurement": "clinical symptoms of autoimmune encephalomyelitis", "value": "mild and transient clinical symptoms of autoimmune encephalomyelitis"}
    ]}
  ]
}
